Test system: NCI-H838 MTAP(-/-) cells
Assay: Inhibition of proliferation of NCI-H838 MTAP(-/-) cells (CellTiter-Glo)
Conditions: Homo sapiens, NCI-H838, 144 h, read-out: IC50(nM) NCI-H838 MTAP(-/-)

Question: Which IC50 does the source give for CN[C@@H]1C[C@H]2O[C@@](C)([C@@H]1OC)n1c3ccccc3c3c4c(c5c6ccccc6n2c5c31)C(=O)NC4 [Staurosporine, reference compound] here?
Answer: 0.8 nM

Source: patent EP4775208A1, “USE OF PRMT5 INHIBITOR IN TREATMENT OF TUMORS OR CANCERS” (Apeiron Therapeutics (Hong Kong) Ltd., priority 2023, dated 2025)
